# From US20250059282A1
# Results are given in words; binding and its absence hold for the method and conditions named. Some results given as binding are weak or reduced against the parent protein; the word gives no strength.
# Columns and labels:
# [1] = biological target: Cyno PD-L2-Fc (cynomolgus); test: ForteBio (Tables 5 and 6)
# [2] = biological target: Cyno PD-L1-Fc (cynomolgus) (UniProt G7PSE7); test: ForteBio (Tables 5 and 6)
binding [1],binding [2],Binder
binds,binds,"BiPDL4-24 (antibody, V domains shown) VH: QVQLVESGGGVVQPGRSLRLSCAASGFTFDEYGMHWVRQAPGKGLEWVAVIGYDGLNKYYADSVKGRFTISRDNSKNTLYLQMNSLRAEDTAVYYCARAGIEYSYAYTDYWGQGTLVTVSS VL: EIVLTQSPGTLSLSPGERATLSCRASNSVVSSYLAWYQQKPGQAPRLLIYGAASRANGIPDRFSGSGSGTDFTLTISRLEPEDFAVYYCVQFGWWPPRTFGGGTKVEIK"
binds,binds,"BiPDL4-44 (antibody, V domains shown) VH: QVQLVESGGGVIQPGRSLRLSCAASGFTFSAYLMHWVRQAPGKGLEWVAAIGYDGMNKYYADSVKGRFTISRDNSKNTLYLQMNSLRAEDTAVYYCARAGIEYSYAYTDYWGQGTLVTVSS VL: EIVLTQSPGTLSLSPGERATLSCRASHSVVSSYLAWYQQKPGQAPRLLIYGASSREDGIPDRFSGSGSGTDFTLTISRLEPEDFAVYYCVQFGWWPPRTFGGGTKVEIK"
